Measurements taken from PMC6712033, “Proteasome subunit α1 overexpression preferentially drives canonical proteasome biogenesis and enhances stress tolerance in yeast” (Scientific Reports, 2019).
These are yes or no findings as the source states them, for the method shown. Binding seen in cells or lysates may run through a third protein. These calls come from enrichment with a bait or labelling near it, and not all partners need be listed. Tags and fused reporters may be left off the sequences shown.

Target: T1, proteasome subunit β5-3xFLAG (S. cerevisiae) (UniProt P30656)
T1 sequence: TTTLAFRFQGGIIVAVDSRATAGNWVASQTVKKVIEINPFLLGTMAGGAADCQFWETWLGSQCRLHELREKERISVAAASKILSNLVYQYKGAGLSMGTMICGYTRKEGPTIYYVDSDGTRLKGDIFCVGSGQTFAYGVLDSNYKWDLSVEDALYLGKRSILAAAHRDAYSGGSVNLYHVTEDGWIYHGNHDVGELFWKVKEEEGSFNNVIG
Test: affinity purification with mass spectrometry; CP purified by β5-3xFLAG on anti-FLAG M2 gel from mixed SILAC-labelled extracts of pba3Δ yeast (empty vector or α1 overexpressed); 500 mM NaCl washes; eluted with 3xFLAG peptide; native PAGE, 20S band excised, LC-MS/MS

- binding: binds
B1: proteasome subunit α4 (protein, UniProt P40303 1-254)
chain: MSGYDRALSIFSPDGHIFQVEYALEAVKRGTCAVGVKGKNCVVLGCERRSTLKLQDTRITPSKVSKIDSHVVLSFSGLNADSRILIEKARVEAQSHRLTLEDPVTVEYLTRYVAGVQQRYTQSGGVRPFGVSTLIAGFDPRDDEPKLYQTEPSGIYSSWSAQTIGRNSKTVREFLEKNYDRKEPPATVEECVKLTVRSLLEVVQTGAKNIEITVVKPDSDIVALSSEEINQYVTQIEQEKQEQQEQDKKKKSNH
